In publication PMC12376509:
No constants are given. Whether binding was seen depends on the method and setting. Binding seen in cells or lysates may run through a third protein. Some results given as binding are weak or reduced against the parent protein; the word gives no strength.

Target: T1, NEAT1-31 (micropeptide encoded by LincNEAT1) (human (endogenous in THP1))
T1 sequence: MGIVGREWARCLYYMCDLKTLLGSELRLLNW
Experiment: co-IP; IP-IB with Neat-31 antibody or Aurora A antibody from cell lysate; 0.3% CHAPS lysis buffer, Protein A/G beads, 4 °C, 8-12 h, washed with PBST; Western blot

B1: Aurora-A (enzyme, UniProt O14965 1-403)
chain: MDRSKENCISGPVKATAPVGGPKRVLVTQQFPCQNPLPVNSGQAQRVLCPSNSSQRIPLQAQKLVSSHKPVQNQKQKQLQATSVPHPVSRPLNNTQKSKQPLPSAPENNPEEELASKQKNEESKKRQWALEDFEIGRPLGKGKFGNVYLAREKQSKFILALKVLFKAQLEKAGVEHQLRREVEIQSHLRHPNILRLYGYFHDATRVYLILEYAPLGTVYRELQKLSKFDEQRTATYITELANALSYCHSKRVIHRDIKPENLLLGSAGELKIADFGWSVHAPSSRRTTLCGTLDYLPPEMIEGRMHDEKVDLWSLGVLCYEFLVGKPPFEANTYQETYKRISRVEFTFPDFVTEGARDLISRLLKHNPSQRPMLREVLEHPWITANSSKPSNCQNKESASKQS
  binding: binds
